# Measurements reported in PubChem BioAssay AID743121 (NCATS, 2013)
# Assay: 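Partners whose loss is lethal together with topoisomerase I blockade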 (primary screen)
# System: MDA-MB-231 cells, a human breast cancer line
# Reagents: single siRNA against human genes, 20 nM siRNA (0.8 pmol per well)
# Duration: 120 h (drug added 48 h after transfection, read 72 h later)
# Challenge: camptothecin 20 nM (about EC30) for 72 h; vehicle 0.1% DMSO in parallel plates
# Measurement: 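Cell viability by ATP luminescence (CellTiter-Glo) as % of non-targeting siRNA wells, and the log2 ratio of viability without drug over viability with camptothecin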
# Reading the numbers: log2 vehicle/camptothecin viability: higher = stronger sensitisation to camptothecin; viability with camptothecin: higher = more viable cells
# Call rule: 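Active genes have an RSA gene-level p-value below 0.001, computed from the ratios of their separate siRNAs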
# Here is a random part of about 26,000 deposited reagents. 167 of them (0.63%) count as active. 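Calls are per gene from RSA p-values that are not deposited; an individual active-marked siRNA can sensitise only weakly.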 Reagents against one gene are numbered here. Not all columns of the deposit are shown. No sequences are given here.
target gene,reagent no.,log2 vehicle/camptothecin viability,viability with camptothecin (% of control),Call
PTPN20,1,0.158,69,inactive
PTPN20,2,-0.458,67.2,inactive
PTPN20,3,0.0031,50.5,inactive
PTPN20,4,-0.473,104,inactive
MC5R,1,-0.249,84.5,inactive
MC5R,2,0.0137,77.9,inactive
MC5R,3,-0.235,74.3,inactive
MC5R,4,-0.174,56,inactive
SLC35H1,1,-0.0246,123,inactive
SLC35H1,2,0.0471,113,inactive
SLC35H1,3,0.627,48.1,inactive
SLC35H1,4,0.843,46.7,inactive
PGBD1,1,-0.0094,51.6,inactive
PGBD1,2,-0.509,40.2,inactive
PGBD1,3,-0.481,33.1,inactive
PGBD1,4,0.145,52.5,inactive
ADAM30,1,-0.432,81.9,inactive
ADAM30,2,0.0138,92,inactive
ADAM30,3,-0.229,117,inactive
ADAM30,4,0.517,65,inactive
GNRH2,1,-0.387,72.1,inactive
GNRH2,2,0.161,84.4,inactive
GNRH2,3,1.07,38.7,inactive
GNRH2,4,-0.11,60.4,inactive
MYH7B,1,-0.171,77.7,inactive
MYH7B,2,-0.236,109,inactive
MYH7B,3,-0.29,89.6,inactive
MYH7B,4,0.406,40,inactive
ATP7B,1,-0.339,82.4,inactive
ATP7B,2,0.268,80.8,inactive
ATP7B,3,-0.423,103,inactive
ATP7B,4,0.303,14.8,inactive
TIE1,1,-0.272,112,inactive
TIE1,2,0.989,47.3,inactive
TIE1,3,-0.248,102,inactive
TIE1,4,0.0825,48.2,inactive
PIK3CB,1,-0.27,121,inactive
PIK3CB,2,0.154,27.4,inactive
PIK3CB,3,-0.177,75.2,inactive
PIK3CB,4,-0.195,103,inactive
GNAI3,1,0.213,90.3,inactive
GNAI3,2,0.204,58.8,inactive
GNAI3,3,-0.195,115,inactive
CXCL13,1,-0.446,111,inactive
CXCL13,2,0.172,101,inactive
CXCL13,3,-0.227,51,inactive
LILRB3,1,-0.418,61.8,inactive
LILRB3,2,0.00581,11.9,inactive
LILRB3,3,-0.14,117,inactive
SP140,1,-0.251,63.4,inactive
SP140,2,-0.296,60.1,inactive
SP140,3,-0.575,57.5,inactive
SP140,4,-0.107,110,inactive

Individual results from the list.
PTPN20 #3, log2 vehicle/camptothecin viability → 0.0031
Result of SLC35H1 #2 under “viability with camptothecin (% of control)”: 113
For “viability with camptothecin (% of control)”, ADAM30 #2 shows 92
Value for MC5R #4 in “viability with camptothecin (% of control)”: 56

Next records:
target gene,reagent no.,log2 vehicle/camptothecin viability,viability with camptothecin (% of control),Call
GPR32,1,1.18,49,inactive
GPR32,2,-0.0665,56.7,inactive
GPR32,3,-0.0878,80.6,inactive
GPR32,4,-0.302,68.5,inactive
SLC25A44,1,-0.439,58.4,inactive
SLC25A44,2,-0.229,105,inactive
SLC25A44,3,-0.112,55.6,inactive
SLC25A44,4,-0.0841,64.7,inactive
TNFRSF1A,1,-0.525,104,inactive
TNFRSF1A,2,0.0127,79.8,inactive
TNFRSF1A,3,-0.0764,65.4,inactive
CNTRL,1,-0.159,64.7,inactive
CNTRL,2,-0.089,115,inactive
CNTRL,3,-0.427,80.5,inactive
CNTRL,4,-0.0221,89.2,inactive
CENPE,1,-0.292,91.3,inactive
CENPE,2,-0.613,87,inactive
CENPE,3,-0.313,74,inactive
CENPE,4,-0.423,26,inactive
PGA5,1,-0.594,48.2,inactive
PGA5,2,-0.225,123,inactive
PGA5,3,-0.18,17.5,inactive
PGA5,4,-0.00901,103,inactive
EGFR,1,0.0877,60.6,inactive
EGFR,2,-0.501,81.8,inactive
EGFR,3,-0.303,107,inactive
EGFR,4,-0.329,101,inactive
MMP14,1,0.142,97.3,inactive
MMP14,2,-0.168,92.6,inactive
MMP14,3,0.00561,96.4,inactive
MMP14,4,0.05,65.4,inactive
CELF1,1,-0.446,58,inactive
CELF1,2,0.0827,89.8,inactive
CELF1,3,-0.224,86.3,inactive
CELF1,4,-0.112,101,inactive
